No constants are given. Whether binding was seen depends on the method and setting. In cells and extracts the contact can be indirect. These calls come from enrichment with a bait or labelling near it, and not all partners need be listed. For some of these results: No binding means not detected with the bait.
How the values were obtained:
[1] = molecular target: Hsp104-GFP (S. cerevisiae) (UniProt P31539); test: affinity purification with mass spectrometry; Hsp104-GFP captured on GFP-Trap magnetic agarose (nanotrap) from gently lysed wild-type and Δrpn4 yeast cells, clogger induced with 0.5% galactose for 6 h; 1 h at 4°C; lysis buffer with 1% Nonidet P-40; hits by enrichment over a DHFR-GFP pull-down; label-free LC-MS/MS
[2] = molecular target: Hsp104-GFP (S. cerevisiae) (UniProt P31539); test: condition: only cells expressing the DHFR control instead of the clogger; affinity purification with mass spectrometry; as a1, but cells expressed the cytosolic DHFR control instead of the clogger (no clogger)
[3] = molecular target: Hsp104-GFP (S. cerevisiae) (UniProt P31539); test: affinity purification with mass spectrom
[4] = molecular target: Hsp104-GFP (S. cerevisiae) (UniProt P31539); test: affinity purification with mass spectrometry; Hsp104-GFP captured on GFP-Trap magnetic agarose (nanotrap) from gently lysed wild-type and Δrpn4 yeast cells, clogger induced with 0.5% galactose for 6 h; 1 h at 4°C; lysis buffer with 1% Nonidet P-40; hits by enrichment over a DHFR-GFP pull-down; label-free LC-MS/MS; remark: listed apart in the source

Chains of the proteins cited; added tags and fusions are not shown. Lines headed by an entry give the natural chain unless they say otherwise; changes in a name come on top.
UniProt P31539: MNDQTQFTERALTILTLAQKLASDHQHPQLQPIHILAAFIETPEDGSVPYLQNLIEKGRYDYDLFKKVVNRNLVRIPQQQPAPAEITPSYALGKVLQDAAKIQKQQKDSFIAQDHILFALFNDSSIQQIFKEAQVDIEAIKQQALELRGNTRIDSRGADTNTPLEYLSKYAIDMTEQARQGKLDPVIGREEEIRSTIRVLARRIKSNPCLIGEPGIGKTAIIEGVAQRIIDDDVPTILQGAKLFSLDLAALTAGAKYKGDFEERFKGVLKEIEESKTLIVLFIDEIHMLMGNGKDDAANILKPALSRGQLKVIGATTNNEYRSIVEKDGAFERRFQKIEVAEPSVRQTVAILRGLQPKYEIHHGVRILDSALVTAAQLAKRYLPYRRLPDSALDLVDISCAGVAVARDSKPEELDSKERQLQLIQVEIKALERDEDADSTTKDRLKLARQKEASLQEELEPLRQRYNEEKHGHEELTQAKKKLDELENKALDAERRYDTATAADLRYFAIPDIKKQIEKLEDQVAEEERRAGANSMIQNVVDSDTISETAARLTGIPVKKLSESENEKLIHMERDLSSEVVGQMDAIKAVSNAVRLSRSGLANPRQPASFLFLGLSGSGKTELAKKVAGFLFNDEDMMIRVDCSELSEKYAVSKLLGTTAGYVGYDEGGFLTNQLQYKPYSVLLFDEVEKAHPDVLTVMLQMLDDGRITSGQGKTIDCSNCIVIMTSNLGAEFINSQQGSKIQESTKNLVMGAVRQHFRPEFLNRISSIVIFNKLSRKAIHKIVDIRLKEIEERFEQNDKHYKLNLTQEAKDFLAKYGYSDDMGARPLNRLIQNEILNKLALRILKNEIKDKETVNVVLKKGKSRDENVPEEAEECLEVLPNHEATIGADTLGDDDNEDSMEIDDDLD
UniProt Q12329: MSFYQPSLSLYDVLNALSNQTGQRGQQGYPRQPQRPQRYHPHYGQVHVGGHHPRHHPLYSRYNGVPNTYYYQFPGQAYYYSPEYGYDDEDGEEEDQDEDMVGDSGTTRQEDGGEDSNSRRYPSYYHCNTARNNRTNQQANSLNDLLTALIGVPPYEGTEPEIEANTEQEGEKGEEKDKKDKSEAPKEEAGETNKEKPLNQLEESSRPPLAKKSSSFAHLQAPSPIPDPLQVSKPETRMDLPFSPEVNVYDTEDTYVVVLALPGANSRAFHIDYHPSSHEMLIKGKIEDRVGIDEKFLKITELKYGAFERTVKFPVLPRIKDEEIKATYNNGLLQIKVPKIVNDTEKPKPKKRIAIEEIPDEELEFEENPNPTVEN
UniProt P39522: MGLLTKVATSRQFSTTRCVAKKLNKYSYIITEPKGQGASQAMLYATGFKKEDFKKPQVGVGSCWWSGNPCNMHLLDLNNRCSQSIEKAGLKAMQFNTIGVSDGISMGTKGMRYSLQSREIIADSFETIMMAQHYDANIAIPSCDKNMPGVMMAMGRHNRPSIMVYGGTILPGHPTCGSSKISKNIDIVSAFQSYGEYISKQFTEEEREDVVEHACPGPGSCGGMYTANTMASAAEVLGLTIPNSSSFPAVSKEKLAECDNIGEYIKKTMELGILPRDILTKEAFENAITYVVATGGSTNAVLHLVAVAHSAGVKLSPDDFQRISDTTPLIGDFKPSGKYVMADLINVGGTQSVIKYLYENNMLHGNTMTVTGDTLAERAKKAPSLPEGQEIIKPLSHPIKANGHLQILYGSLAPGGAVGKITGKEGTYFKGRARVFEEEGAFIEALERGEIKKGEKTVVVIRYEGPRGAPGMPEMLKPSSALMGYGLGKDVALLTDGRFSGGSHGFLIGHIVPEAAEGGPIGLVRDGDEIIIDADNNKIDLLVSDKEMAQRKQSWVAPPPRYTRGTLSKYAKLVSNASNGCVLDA
UniProt P08067: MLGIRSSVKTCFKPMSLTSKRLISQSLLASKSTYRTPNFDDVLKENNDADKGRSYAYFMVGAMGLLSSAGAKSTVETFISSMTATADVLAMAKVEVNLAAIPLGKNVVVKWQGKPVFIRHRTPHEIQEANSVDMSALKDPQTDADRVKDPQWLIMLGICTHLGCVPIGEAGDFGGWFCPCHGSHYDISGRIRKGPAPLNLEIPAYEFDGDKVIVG
UniProt P32799: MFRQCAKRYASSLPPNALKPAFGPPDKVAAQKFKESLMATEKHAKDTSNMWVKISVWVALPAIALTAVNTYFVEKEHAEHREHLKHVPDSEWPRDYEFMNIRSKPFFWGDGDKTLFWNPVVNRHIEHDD
UniProt P35191: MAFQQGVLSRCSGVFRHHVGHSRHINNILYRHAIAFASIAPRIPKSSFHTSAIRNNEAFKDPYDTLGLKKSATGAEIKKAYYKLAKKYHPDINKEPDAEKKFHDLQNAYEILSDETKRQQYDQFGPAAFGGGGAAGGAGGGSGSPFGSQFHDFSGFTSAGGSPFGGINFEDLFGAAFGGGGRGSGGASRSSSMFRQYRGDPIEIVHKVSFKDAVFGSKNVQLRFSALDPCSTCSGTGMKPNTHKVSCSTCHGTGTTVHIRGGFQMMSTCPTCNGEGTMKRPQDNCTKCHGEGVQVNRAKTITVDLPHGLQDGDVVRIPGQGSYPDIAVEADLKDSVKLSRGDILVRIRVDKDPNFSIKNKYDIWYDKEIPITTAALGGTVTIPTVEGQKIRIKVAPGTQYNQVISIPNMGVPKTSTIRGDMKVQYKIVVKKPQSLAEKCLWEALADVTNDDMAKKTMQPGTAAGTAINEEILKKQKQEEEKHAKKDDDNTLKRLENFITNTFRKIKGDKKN
UniProt P00358: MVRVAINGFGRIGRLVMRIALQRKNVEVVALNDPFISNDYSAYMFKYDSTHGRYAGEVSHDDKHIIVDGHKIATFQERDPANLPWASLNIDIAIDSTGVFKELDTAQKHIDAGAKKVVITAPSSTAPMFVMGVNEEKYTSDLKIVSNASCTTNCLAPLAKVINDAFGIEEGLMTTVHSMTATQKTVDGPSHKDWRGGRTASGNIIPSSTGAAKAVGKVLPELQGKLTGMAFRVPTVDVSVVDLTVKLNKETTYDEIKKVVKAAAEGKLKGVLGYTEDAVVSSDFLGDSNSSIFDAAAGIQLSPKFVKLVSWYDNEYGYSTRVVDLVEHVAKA
UniProt P04039: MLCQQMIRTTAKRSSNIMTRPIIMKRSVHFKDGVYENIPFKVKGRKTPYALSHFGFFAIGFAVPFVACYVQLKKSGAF
UniProt P34227: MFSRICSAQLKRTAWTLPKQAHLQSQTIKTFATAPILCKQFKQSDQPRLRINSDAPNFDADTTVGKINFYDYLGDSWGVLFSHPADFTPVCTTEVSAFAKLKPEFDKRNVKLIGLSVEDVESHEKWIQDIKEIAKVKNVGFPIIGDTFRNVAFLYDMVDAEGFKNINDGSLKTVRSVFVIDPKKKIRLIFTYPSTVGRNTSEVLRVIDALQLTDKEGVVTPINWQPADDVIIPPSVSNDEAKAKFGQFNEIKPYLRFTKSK
UniProt P40513: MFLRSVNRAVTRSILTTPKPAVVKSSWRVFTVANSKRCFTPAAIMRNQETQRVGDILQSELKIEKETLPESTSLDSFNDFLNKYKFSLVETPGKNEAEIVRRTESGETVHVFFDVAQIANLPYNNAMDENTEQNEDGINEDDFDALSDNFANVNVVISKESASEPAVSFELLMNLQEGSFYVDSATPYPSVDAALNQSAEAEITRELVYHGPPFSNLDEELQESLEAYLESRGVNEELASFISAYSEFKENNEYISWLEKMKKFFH
UniProt P23180: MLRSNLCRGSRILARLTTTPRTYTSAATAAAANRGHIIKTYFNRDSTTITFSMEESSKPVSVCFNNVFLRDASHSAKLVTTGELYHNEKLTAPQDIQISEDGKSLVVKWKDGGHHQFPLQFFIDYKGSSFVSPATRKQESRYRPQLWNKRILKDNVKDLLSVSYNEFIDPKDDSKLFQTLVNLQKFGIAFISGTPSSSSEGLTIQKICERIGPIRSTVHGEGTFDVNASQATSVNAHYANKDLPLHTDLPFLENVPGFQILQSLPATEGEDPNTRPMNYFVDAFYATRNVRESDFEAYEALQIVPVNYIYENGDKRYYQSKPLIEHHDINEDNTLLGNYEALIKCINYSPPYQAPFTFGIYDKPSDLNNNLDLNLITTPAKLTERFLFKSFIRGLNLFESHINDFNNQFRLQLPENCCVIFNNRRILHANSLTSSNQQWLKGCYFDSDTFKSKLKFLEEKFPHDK
UniProt P19882: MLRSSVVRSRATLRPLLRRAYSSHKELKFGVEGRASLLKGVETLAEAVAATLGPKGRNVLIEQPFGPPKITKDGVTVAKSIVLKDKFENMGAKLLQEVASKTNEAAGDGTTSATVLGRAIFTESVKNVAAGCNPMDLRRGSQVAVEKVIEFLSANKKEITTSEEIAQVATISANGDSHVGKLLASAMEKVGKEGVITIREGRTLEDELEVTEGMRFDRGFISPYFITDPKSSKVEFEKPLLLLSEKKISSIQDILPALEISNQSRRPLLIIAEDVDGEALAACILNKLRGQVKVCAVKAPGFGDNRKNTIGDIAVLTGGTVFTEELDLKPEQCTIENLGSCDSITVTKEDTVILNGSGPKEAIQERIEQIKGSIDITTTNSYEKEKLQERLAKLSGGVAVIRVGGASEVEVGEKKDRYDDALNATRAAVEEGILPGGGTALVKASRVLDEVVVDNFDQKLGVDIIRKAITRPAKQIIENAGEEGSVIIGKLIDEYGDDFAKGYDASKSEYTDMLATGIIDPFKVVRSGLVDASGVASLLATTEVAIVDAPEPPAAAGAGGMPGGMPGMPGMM
UniProt P00447: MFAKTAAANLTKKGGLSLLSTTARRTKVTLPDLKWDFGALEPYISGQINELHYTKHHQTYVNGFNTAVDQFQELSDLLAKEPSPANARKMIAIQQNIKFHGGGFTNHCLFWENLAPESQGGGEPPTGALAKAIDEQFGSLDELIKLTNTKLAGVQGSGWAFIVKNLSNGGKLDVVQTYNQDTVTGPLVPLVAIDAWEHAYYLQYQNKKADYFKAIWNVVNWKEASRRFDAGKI
UniProt Q01217: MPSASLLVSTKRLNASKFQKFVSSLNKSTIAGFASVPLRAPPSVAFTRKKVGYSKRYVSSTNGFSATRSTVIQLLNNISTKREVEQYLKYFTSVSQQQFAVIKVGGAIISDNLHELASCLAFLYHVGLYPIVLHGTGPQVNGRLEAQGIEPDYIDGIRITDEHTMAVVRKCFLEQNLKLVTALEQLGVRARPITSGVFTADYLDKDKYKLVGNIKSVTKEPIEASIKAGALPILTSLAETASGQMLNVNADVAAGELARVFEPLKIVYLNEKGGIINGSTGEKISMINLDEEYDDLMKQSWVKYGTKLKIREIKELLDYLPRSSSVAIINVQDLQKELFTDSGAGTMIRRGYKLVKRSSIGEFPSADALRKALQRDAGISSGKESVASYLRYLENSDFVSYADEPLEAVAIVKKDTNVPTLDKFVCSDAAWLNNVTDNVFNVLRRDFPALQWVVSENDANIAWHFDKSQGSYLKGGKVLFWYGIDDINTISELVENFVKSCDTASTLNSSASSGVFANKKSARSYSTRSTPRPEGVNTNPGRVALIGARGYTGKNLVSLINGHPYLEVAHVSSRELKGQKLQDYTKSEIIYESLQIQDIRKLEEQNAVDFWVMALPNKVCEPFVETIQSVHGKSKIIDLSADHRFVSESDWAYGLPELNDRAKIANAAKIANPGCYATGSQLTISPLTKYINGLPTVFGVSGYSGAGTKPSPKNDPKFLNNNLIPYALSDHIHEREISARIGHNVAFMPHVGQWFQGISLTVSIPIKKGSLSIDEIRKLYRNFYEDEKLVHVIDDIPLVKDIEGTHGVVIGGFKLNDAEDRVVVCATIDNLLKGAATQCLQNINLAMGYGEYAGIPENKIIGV
UniProt P32473: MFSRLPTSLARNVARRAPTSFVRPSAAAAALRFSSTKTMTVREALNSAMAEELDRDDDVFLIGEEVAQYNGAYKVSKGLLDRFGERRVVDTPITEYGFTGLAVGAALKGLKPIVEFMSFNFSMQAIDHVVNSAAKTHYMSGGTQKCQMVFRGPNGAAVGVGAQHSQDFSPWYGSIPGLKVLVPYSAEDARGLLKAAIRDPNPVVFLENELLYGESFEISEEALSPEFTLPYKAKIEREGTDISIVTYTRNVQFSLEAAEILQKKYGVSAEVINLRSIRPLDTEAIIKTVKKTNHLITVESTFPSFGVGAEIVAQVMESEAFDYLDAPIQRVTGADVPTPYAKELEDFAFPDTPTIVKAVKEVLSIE
UniProt Q12349: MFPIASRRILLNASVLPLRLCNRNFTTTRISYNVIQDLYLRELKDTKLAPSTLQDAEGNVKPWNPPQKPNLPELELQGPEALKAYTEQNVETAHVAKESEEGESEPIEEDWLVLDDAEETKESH

Molecule	binding [1]	further results
small heat shock protein Hsp42 (from UniProt Q12329 1-375)	binds	binding [2]: no binding
Ilv3 (from UniProt P39522)	binds	
Rip1 (from UniProt P08067)	binds	
Cox13 (from UniProt P32799)	binds	
Mdj1 (from UniProt P35191)	binds	
Tdh2 (from UniProt P00358 1-332)	binds	
Cox8 (from UniProt P04039)	binds	
Prx1 (from UniProt P34227)	binds	
Mam33 (from UniProt P40513)	binds	
Aim17 (from UniProt P23180)	binds	
Hsp60 (from UniProt P19882)	binds	
Sod2 (from UniProt P00447)	binds	
Arg5,6 (from UniProt Q01217)	binds	
Pdb1 (from UniProt P32473)	binds	
Atp14 (from UniProt Q12349)	binds	
yeast prion protein Rnq1 (protein, UniProt P25367 1-405) MDTDKLISEAESHFSQGNHAEAVAKLTSAAQSNPNDEQMSTIESLIQKIAGYVMDNRSGGSDASQDRAAGGGSSFMNTLMADSKGSSQTQLGKLALLATVMTHSSNKGSSNRGFDVGTVMSMLSGSGGGSQSMGASGLAALASQFFKSGNNSQGQGQGQGQGQGQGQGQGQGSFTALASLASSFMNSNNNNQQGQNQSSGGSSFGALASMASSFMHSNNNQNSNNSQQGYNQSYQNGNQNSQGYNNQQYQGGNGGYQQQQGQSGGAFSSLASMAQSYLGGGQTQSNQQQYNQQGQNNQQQYQQQGQNYQHQQQGQQQQQGHSSSFSALASMASSYLGNNSNSNSSYGGQQQANEYGRPQQNGQQQSNEYGRPQYGGNQNSNGQHESFNFSGNFSQQNNNGNQNRY		binding [3]: binds
small heat shock protein Hsp26 (protein, UniProt P15992 1-214) MSFNSPFFDFFDNINNEVDAFNRLLGEGGLRGYAPRRQLANTPAKDSTGKEVARPNNYAGALYDPRDETLDDWFDNDLSLFPSGFGFPRSVAVPVDILDHDNNYELKVVVPGVKSKKDIDIEYHQNKNQILVSGEIPSTLNEESKDKVKVKESSSGKFKRVITLPDYPGVDADNIKADYANGVLTLTVPKLKPQKDGKNHVKKIEVSSQESWGN		binding [4]: binds; binding [2]: no binding
Sse1 (protein, UniProt P32589 1-693) MSTPFGLDLGNNNSVLAVARNRGIDIVVNEVSNRSTPSVVGFGPKNRYLGETGKNKQTSNIKNTVANLKRIIGLDYHHPDFEQESKHFTSKLVELDDKKTGAEVRFAGEKHVFSATQLAAMFIDKVKDTVKQDTKANITDVCIAVPPWYTEEQRYNIADAARIAGLNPVRIVNDVTAAGVSYGIFKTDLPEGEEKPRIVAFVDIGHSSYTCSIMAFKKGQLKVLGTACDKHFGGRDFDLAITEHFADEFKTKYKIDIRENPKAYNRILTAAEKLKKVLSANTNAPFSVESVMNDVDVSSQLSREELEELVKPLLERVTEPVTKALAQAKLSAEEVDFVEIIGGTTRIPTLKQSISEAFGKPLSTTLNQDEAIAKGAAFICAIHSPTLRVRPFKFEDIHPYSVSYSWDKQVEDEDHMEVFPAGSSFPSTKLITLNRTGDFSMAASYTDITQLPPNTPEQIANWEITGVQLPEGQDSVPVKLKLRCDPSGLHTIEEAYTIEDIEVEEPIPLPEDAPEDAEQEFKKVTKTVKKDDLTIVAHTFGLDAKKLNELIEKENEMLAQDKLVAETEDRKNTLEEYIYTLRGKLEEEYAPFASDAEKTKLQGMLNKAEEWLYDEGFDSIKAKYIAKYEELASLGNIIRGRYLAKEEEKKQAIRSKQEASQMAAMAEKLAAQRKAEAEKKEEKKDTEGDVDMD		binding [4]: binds; binding [2]: no binding
J-domain protein Sis1 (protein, UniProt P25294 1-352) MVKETKLYDLLGVSPSANEQELKKGYRKAALKYHPDKPTGDTEKFKEISEAFEILNDPQKREIYDQYGLEAARSGGPSFGPGGPGGAGGAGGFPGGAGGFSGGHAFSNEDAFNIFSQFFGGSSPFGGADDSGFSFSSYPSGGGAGMGGMPGGMGGMHGGMGGMPGGFRSASSSPTYPEEETVQVNLPVSLEDLFVGKKKSFKIGRKGPHGASEKTQIDIQLKPGWKAGTKITYKNQGDYNPQTGRRKTLQFVIQEKSHPNFKRDGDDLIYTLPLSFKESLLGFSKTIQTIDGRTLPLSRVQPVQPSQTSTYPGQGMPTPKNPSQRGNLIVKYKVDYPISLNDAQKRAIDENF		binding [4]: binds
